1 substance from PMC3974651 can be followed below.

By UniProt entry, the sequences of proteins in these tests, tags left out. Where a name states a change or a piece, a line headed by the entry shows the natural chain unless it says otherwise.
UniProt Q7XJM8: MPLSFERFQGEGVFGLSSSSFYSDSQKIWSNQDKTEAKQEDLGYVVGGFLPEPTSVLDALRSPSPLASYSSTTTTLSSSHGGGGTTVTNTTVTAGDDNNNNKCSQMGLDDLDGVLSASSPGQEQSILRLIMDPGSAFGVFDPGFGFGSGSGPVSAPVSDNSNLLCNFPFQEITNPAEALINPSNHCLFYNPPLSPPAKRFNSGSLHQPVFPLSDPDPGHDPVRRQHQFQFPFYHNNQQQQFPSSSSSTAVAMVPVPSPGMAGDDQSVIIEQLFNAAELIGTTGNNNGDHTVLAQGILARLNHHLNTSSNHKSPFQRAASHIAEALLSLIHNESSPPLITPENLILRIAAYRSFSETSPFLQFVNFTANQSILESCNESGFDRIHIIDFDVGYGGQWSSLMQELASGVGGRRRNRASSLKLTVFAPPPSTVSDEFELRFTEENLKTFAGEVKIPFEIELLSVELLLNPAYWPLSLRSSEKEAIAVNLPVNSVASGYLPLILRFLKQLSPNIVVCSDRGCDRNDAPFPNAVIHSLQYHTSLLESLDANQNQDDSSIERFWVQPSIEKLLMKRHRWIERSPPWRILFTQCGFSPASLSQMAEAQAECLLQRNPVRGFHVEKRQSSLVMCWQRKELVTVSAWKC

These are yes or no findings as the source states them, for the method shown. Binding calls can cover weak binding; strength is not graded here. Sequences can lack the tags named with a protein.

The experiment concerns the target T1, SQUAMOSA PROMOTER BINDING PROTEIN LIKE 9 (SPL9), yeast two-hybrid fusion (Arabidopsis thaliana) (UniProt Q700W2).
T1 sequence: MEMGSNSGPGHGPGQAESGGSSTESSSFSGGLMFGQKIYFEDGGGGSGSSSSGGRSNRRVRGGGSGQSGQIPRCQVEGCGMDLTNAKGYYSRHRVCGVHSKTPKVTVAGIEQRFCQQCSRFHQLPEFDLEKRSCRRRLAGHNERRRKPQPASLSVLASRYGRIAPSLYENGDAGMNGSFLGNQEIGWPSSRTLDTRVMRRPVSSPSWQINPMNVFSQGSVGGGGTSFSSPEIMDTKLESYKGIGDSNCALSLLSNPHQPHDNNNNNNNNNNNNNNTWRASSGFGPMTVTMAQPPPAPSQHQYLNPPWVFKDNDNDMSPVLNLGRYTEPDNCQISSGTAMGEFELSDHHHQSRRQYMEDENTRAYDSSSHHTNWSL
Briefly: two-hybrid; Matchmaker GAL4 Two-Hybrid System, yeast strain AH109, growth on SD/-Leu/-Trp/-His with 15 mM 3-amino-1,2,4-triazole; three independent clones for each transformation.

“N-terminal (1-250) of LOM1, yeast two-hybrid fusion (from UniProt Q7XJM8) (domain or fragment)”: the binding entry is “binds”.
